Paper PMC11540758
Results are given in words; binding and its absence hold for the method and conditions named. Binding seen in cells or lysates may run through a third protein. Some results given as binding are weak or reduced against the parent protein; the word gives no strength. Sequences can lack the tags named with a protein.

Target: T1, NPR4 (positive control of the luciferase complementation assay) (UniProt Q5ICL9)
T1 sequence: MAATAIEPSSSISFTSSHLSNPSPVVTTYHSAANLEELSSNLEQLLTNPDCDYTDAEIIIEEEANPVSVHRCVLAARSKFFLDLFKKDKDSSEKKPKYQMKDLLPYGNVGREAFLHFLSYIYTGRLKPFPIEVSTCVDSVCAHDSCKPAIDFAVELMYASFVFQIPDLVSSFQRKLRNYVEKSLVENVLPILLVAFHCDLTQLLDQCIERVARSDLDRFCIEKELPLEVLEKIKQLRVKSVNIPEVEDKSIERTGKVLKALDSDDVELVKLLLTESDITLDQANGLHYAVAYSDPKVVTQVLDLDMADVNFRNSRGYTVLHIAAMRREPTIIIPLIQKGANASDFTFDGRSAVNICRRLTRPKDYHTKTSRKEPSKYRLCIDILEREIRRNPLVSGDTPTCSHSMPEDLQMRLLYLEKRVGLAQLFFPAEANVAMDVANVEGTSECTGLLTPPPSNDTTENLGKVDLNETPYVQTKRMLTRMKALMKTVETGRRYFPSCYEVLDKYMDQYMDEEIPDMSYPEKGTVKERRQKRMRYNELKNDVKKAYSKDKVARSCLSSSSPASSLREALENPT
Assay: split reporter; split luciferase complementation assay (LCA) in N. benthamiana leaves, imaged 48 hours after agro-infiltration with luciferin

binding: binds
B1: NPR3 (positive control of the luciferase complementation assay) (protein, UniProt Q8L746 1-586)
chain: MATLTEPSSSLSFTSSHFSYGSIGSNHFSSSSASNPEVVSLTKLSSNLEQLLSNSDCDYSDAEIIVDGVPVGVHRCILAARSKFFQDLFKKEKKISKTEKPKYQLREMLPYGAVAHEAFLYFLSYIYTGRLKPFPLEVSTCVDPVCSHDCCRPAIDFVVQLMYASSVLQVPELVSSFQRRLCNFVEKTLVENVLPILMVAFNCKLTQLLDQCIERVARSDLYRFCIEKEVPPEVAEKIKQLRLISPQDEETSPKISEKLLERIGKILKALDSDDVELVKLLLTESDITLDQANGLHYSVVYSDPKVVAEILALDMGDVNYRNSRGYTVLHFAAMRREPSIIISLIDKGANASEFTSDGRSAVNILRRLTNPKDYHTKTAKGRESSKARLCIDILEREIRKNPMVLDTPMCSISMPEDLQMRLLYLEKRVGLAQLFFPTEAKVAMDIGNVEGTSEFTGLSPPSSGLTGNLSQVDLNETPHMQTQRLLTRMVALMKTVETGRRFFPYGSEVLDKYMAEYIDDDILDDFHFEKGSTHERRLKRMRYRELKDDVQKAYSKDKESKIARSCLSASSSPSSSSIRDDLHNTT
